Measurements reported in publication PMC8582188.
Results are given in words; binding and its absence hold for the method and conditions named. For part of these data: In cells and extracts the contact can be indirect. Some entries that bind do so weakly or less than the wild type. Where a sequence is shown, tags or fusion partners need not be part of it.

By UniProt entry, the sequences of proteins in these tests, tags left out. Residues count along the entry.
UniProt P07251, residues 36-545: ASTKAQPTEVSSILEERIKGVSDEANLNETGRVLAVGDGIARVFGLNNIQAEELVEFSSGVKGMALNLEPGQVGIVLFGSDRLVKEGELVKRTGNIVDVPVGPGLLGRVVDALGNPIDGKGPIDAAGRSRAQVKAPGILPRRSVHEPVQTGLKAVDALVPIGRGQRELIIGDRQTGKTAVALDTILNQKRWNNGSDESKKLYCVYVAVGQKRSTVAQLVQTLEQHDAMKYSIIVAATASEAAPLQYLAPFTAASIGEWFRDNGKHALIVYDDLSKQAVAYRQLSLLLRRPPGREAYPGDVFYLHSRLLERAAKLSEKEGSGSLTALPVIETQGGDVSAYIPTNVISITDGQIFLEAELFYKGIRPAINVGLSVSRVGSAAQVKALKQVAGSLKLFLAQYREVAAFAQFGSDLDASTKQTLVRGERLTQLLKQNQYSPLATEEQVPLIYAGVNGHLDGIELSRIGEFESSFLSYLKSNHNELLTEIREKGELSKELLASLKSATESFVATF

B1: Ids2-Myc13 (protein, UniProt P46958 1-469)
chain: MDNQQESISEDITGDLAAAVRKSWSESQDNPLLLNFNNSPIGTPTDRYSPEPATMMEGNAMNLSSLARGSTQQQQRLYGSSQTREKSDQQQQDYQLFKHHYSLGQETRESVSDILNDLTLGSPEPSERASPIRQPSVDVPPLTTRRSSIQDVQWIRHLLNPRSSFSGASSNEPTNSPGDFLNQSRAWITILHDSSAESLQAVIVLAESLKNVNSQYNLWVLHSSEVNAFQLAQVGIKTLIIDEYINLFMNFGTGSGFSASSQSTETKGELNFKWCKLFLFFSLIDRFELICYLSPTCLVLQNIDELLESTEVSDEIDNETCVLLSNKVNYINEDLVSVNQDQSSAENYDDDPQIIILKPNRAVAMCIKEYFTIYGNDFEGESKRSMFHQMNDLQIMKALFGDKWSYIDSVGYCAVPIASVPANRLNYKIIEFKILKPWERQNYIAAGQHRESIMNKWLDLWRDFLNQAN
B2: recombinant GST-tagged Ids2 (protein, UniProt P46958 1-469)
chain: MDNQQESISEDITGDLAAAVRKSWSESQDNPLLLNFNNSPIGTPTDRYSPEPATMMEGNAMNLSSLARGSTQQQQRLYGSSQTREKSDQQQQDYQLFKHHYSLGQETRESVSDILNDLTLGSPEPSERASPIRQPSVDVPPLTTRRSSIQDVQWIRHLLNPRSSFSGASSNEPTNSPGDFLNQSRAWITILHDSSAESLQAVIVLAESLKNVNSQYNLWVLHSSEVNAFQLAQVGIKTLIIDEYINLFMNFGTGSGFSASSQSTETKGELNFKWCKLFLFFSLIDRFELICYLSPTCLVLQNIDELLESTEVSDEIDNETCVLLSNKVNYINEDLVSVNQDQSSAENYDDDPQIIILKPNRAVAMCIKEYFTIYGNDFEGESKRSMFHQMNDLQIMKALFGDKWSYIDSVGYCAVPIASVPANRLNYKIIEFKILKPWERQNYIAAGQHRESIMNKWLDLWRDFLNQAN

Key:
Atp3-HA3 (S. cerevisiae) = biological target: T1, Atp3-HA3 (S. cerevisiae) (UniProt P38077); test: co-IP; W303 cells with tagged plasmids grown in SC medium with 3% glycerol; lysis buffer 50 mM NaCl, 0.1% NP-40, 150 mM Tris-HCl pH 8.0; anti-HA or anti-Myc antibody and protein G Sepharose; in Fig. 4A precipitated by an HA antibody and detected by a Myc antibody
T1 sequence: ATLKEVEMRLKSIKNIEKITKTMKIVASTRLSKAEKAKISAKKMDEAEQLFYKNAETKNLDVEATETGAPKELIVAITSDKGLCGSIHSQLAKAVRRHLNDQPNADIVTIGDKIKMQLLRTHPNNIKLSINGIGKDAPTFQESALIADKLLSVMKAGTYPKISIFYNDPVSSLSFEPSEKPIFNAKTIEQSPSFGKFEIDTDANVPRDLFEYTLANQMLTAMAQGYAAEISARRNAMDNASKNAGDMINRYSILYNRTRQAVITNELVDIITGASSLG

Atp1-HA3 (S. cerevisiae) = Atp1-HA3 (S. cerevisiae) (UniProt P07251); test: as above
[1] = biological target: recombinant His6-Atp1 (S. cerevisiae) (UniProt P07251); test: pull-down; Talon-bead-bound His-tagged proteins incubated with 5 ug GST proteins; 20 mM Tris-HCl pH 7.4, 100 mM NaCl, 0.1% NP-40, 4 °C, 1 h; washed with 50 mM imidazole; immunoblot; both purified

| Binder | binding (Atp3-HA3 (S. cerevisiae)) | binding (Atp1-HA3 (S. cerevisiae)) | binding [1] |
| --- | --- | --- | --- |
| B1 | binds | binds |  |
| B2 |  |  | binds weakly |
